# Results published in PMC11589570, “Critical assessment of LC3/GABARAP ligands used for degrader development and ligandability of LC3/GABARAP binding pockets” (Nature Communications, 2024).
# Where “and” joins values, the source holds several entries; their conditions need not be identical. Equal values may be shown once. The source gives many values for each of these; only a part stands here.
# Tested on: RPE1 cells
# Assay: Cell growth assay (IncuCyte confluence over 72 h)
# Assay type: cell-based
# How it was run: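 Phase confluence (% area covered by cells) imaged every 2 h for 72 h after compound addition; cells in DMEM/10% FBS, seeded 24 h before treatment. Controls were 0.1% DMSO, 250 nM Torin1 and 200 ng/mL Bafilomycin (final). Each point averages three wells.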
smiles,measurement,setting,value
O=c1cc(-c2ccccc2)c2c(O)cc(O)cc2o1 [compound 2],RPE1 cell growth,"3 uM, 20 h, listed as AN2",52 and 35 and 38
same,RPE1 cell growth,"3 uM, 22 h, listed as AN2",55 and 39
same,RPE1 cell growth,"3 uM, 24 h, listed as AN2",61 and 43 and 41
same,RPE1 cell growth,"3 uM, 26 h, listed as AN2",64 and 44 and 45
same,RPE1 cell growth,"3 uM, 28 h, listed as AN2",69 and 49 and 47
same,RPE1 cell growth,"3 uM, 30 h, listed as AN2",75 and 52 and 50
same,RPE1 cell growth,"3 uM, 32 h, listed as AN2",78 and 56 and 54
same,RPE1 cell growth,"3 uM, 34 h, listed as AN2",82 and 59 and 60
same,RPE1 cell growth,"3 uM, 36 h, listed as AN2",85 and 64 and 63
same,RPE1 cell growth,"3 uM, 38 h, listed as AN2",87 and 68 and 66
same,RPE1 cell growth,"3 uM, 40 h, listed as AN2",91 and 72 and 71
same,RPE1 cell growth,"3 uM, 42 h, listed as AN2",93 and 76
same,RPE1 cell growth,"3 uM, 44 h, listed as AN2",96 and 81 and 79
same,RPE1 cell growth,"3 uM, 46 h, listed as AN2",97 and 86 and 83
same,RPE1 cell growth,"3 uM, 48 h, listed as AN2",99 and 90 and 88
same,RPE1 cell growth,"3 uM, 50 h, listed as AN2",99 and 92
same,RPE1 cell growth,"3 uM, 52 h, listed as AN2",100 and 96 and 94
same,RPE1 cell growth,"3 uM, 54 h, listed as AN2",100 and 97
same,RPE1 cell growth,"3 uM, 56 h, listed as AN2",100 and 99 and 98
same,RPE1 cell growth,"3 uM, 58 h, listed as AN2",100 and 99
same,RPE1 cell growth,"3 uM, 60 h",100
same,RPE1 cell growth,"3 uM, 62 h",100
same,RPE1 cell growth,"3 uM, 64 h",100
same,RPE1 cell growth,"3 uM, 66 h",100
same,RPE1 cell growth,"3 uM, 68 h",100
same,RPE1 cell growth,"3 uM, 70 h",100
same,RPE1 cell growth,"3 uM, 72 h",100
same,RPE1 cell growth,"5 uM, 12 h, listed as AN2",42 and 27 and 35
same,RPE1 cell growth,"5 uM, 14 h, listed as AN2",46 and 30 and 38
same,RPE1 cell growth,"5 uM, 16 h, listed as AN2",48 and 32 and 40
same,RPE1 cell growth,"5 uM, 18 h, listed as AN2",50 and 33 and 42
same,RPE1 cell growth,"5 uM, 20 h, listed as AN2",50 and 36 and 44
same,RPE1 cell growth,"5 uM, 22 h, listed as AN2",53 and 41 and 46
same,RPE1 cell growth,"5 uM, 24 h, listed as AN2",61 and 42 and 47
same,RPE1 cell growth,"5 uM, 26 h, listed as AN2",65 and 44 and 51
same,RPE1 cell growth,"5 uM, 28 h, listed as AN2",69 and 48 and 53
same,RPE1 cell growth,"5 uM, 30 h, listed as AN2",74 and 54 and 57
same,RPE1 cell growth,"5 uM, 32 h, listed as AN2",77 and 57 and 60
same,RPE1 cell growth,"5 uM, 34 h, listed as AN2",83 and 60 and 64
same,RPE1 cell growth,"5 uM, 36 h, listed as AN2",85 and 66 and 69
same,RPE1 cell growth,"5 uM, 38 h, listed as AN2",87 and 71 and 73
same,RPE1 cell growth,"5 uM, 40 h, listed as AN2",91 and 75 and 76
same,RPE1 cell growth,"5 uM, 42 h, listed as AN2",93 and 78 and 81
same,RPE1 cell growth,"5 uM, 44 h, listed as AN2",96 and 82 and 84
same,RPE1 cell growth,"5 uM, 46 h, listed as AN2",97 and 86 and 88
same,RPE1 cell growth,"5 uM, 48 h, listed as AN2",99 and 90 and 91
same,RPE1 cell growth,"5 uM, 50 h, listed as AN2",99 and 93 and 94
same,RPE1 cell growth,"5 uM, 52 h, listed as AN2",99 and 96
same,RPE1 cell growth,"5 uM, 54 h, listed as AN2",100 and 98 and 97
same,RPE1 cell growth,"5 uM, 56 h, listed as AN2",100 and 99 and 98
same,RPE1 cell growth,"5 uM, 58 h, listed as AN2",100 and 99
same,RPE1 cell growth,"5 uM, 60 h, listed as AN2",100 and 99
same,RPE1 cell growth,"5 uM, 62 h",100
same,RPE1 cell growth,"5 uM, 64 h",100
same,RPE1 cell growth,"5 uM, 66 h",100
same,RPE1 cell growth,"5 uM, 68 h",100
same,RPE1 cell growth,"5 uM, 70 h",100
same,RPE1 cell growth,"5 uM, 72 h",100
same,RPE1 cell growth,"10 uM, 12 h, listed as AN2",45 and 31
same,RPE1 cell growth,"10 uM, 14 h, listed as AN2",48 and 32 and 33
same,RPE1 cell growth,"10 uM, 16 h, listed as AN2",51 and 34 and 35
same,RPE1 cell growth,"10 uM, 18 h, listed as AN2",52 and 35 and 37
same,RPE1 cell growth,"10 uM, 20 h, listed as AN2",52 and 38 and 40
same,RPE1 cell growth,"10 uM, 22 h, listed as AN2",55 and 43 and 42
same,RPE1 cell growth,"10 uM, 24 h, listed as AN2",61 and 44 and 43
same,RPE1 cell growth,"10 uM, 26 h, listed as AN2",65 and 45 and 47
same,RPE1 cell growth,"10 uM, 28 h, listed as AN2",70 and 48 and 49
same,RPE1 cell growth,"10 uM, 30 h, listed as AN2",75 and 53 and 54
same,RPE1 cell growth,"10 uM, 32 h, listed as AN2",80 and 56 and 58
same,RPE1 cell growth,"10 uM, 34 h, listed as AN2",84 and 57 and 61
same,RPE1 cell growth,"10 uM, 36 h, listed as AN2",87 and 63 and 65
same,RPE1 cell growth,"10 uM, 38 h, listed as AN2",89 and 66 and 68
same,RPE1 cell growth,"10 uM, 40 h, listed as AN2",91 and 72 and 73
same,RPE1 cell growth,"10 uM, 42 h, listed as AN2",94 and 75 and 78
same,RPE1 cell growth,"10 uM, 44 h, listed as AN2",96 and 79 and 82
same,RPE1 cell growth,"10 uM, 46 h, listed as AN2",98 and 83 and 85
same,RPE1 cell growth,"10 uM, 48 h, listed as AN2",99 and 88 and 89
same,RPE1 cell growth,"10 uM, 50 h, listed as AN2",100 and 91 and 92
same,RPE1 cell growth,"10 uM, 52 h, listed as AN2",100 and 94
same,RPE1 cell growth,"10 uM, 54 h, listed as AN2",100 and 95 and 96
same,RPE1 cell growth,"10 uM, 56 h, listed as AN2",100 and 97 and 98
same,RPE1 cell growth,"10 uM, 58 h, listed as AN2",100 and 99
same,RPE1 cell growth,"10 uM, 60 h, listed as AN2",100 and 99
same,RPE1 cell growth,"10 uM, 62 h",100
same,RPE1 cell growth,"10 uM, 64 h",100
same,RPE1 cell growth,"10 uM, 66 h",100
same,RPE1 cell growth,"10 uM, 68 h",100
same,RPE1 cell growth,"10 uM, 70 h",100
same,RPE1 cell growth,"10 uM, 72 h",100
